In article doi:10.1101/299586:
Results are given in words; binding and its absence hold for the method and conditions named. Binding seen in cells or lysates may run through a third protein. Some binding calls cover weakened binding; strength is not graded here.

Amino acid sequences for entries named in this document (tags omitted). Residues count along the entry.
UniProt Q92673, residues 82-2214: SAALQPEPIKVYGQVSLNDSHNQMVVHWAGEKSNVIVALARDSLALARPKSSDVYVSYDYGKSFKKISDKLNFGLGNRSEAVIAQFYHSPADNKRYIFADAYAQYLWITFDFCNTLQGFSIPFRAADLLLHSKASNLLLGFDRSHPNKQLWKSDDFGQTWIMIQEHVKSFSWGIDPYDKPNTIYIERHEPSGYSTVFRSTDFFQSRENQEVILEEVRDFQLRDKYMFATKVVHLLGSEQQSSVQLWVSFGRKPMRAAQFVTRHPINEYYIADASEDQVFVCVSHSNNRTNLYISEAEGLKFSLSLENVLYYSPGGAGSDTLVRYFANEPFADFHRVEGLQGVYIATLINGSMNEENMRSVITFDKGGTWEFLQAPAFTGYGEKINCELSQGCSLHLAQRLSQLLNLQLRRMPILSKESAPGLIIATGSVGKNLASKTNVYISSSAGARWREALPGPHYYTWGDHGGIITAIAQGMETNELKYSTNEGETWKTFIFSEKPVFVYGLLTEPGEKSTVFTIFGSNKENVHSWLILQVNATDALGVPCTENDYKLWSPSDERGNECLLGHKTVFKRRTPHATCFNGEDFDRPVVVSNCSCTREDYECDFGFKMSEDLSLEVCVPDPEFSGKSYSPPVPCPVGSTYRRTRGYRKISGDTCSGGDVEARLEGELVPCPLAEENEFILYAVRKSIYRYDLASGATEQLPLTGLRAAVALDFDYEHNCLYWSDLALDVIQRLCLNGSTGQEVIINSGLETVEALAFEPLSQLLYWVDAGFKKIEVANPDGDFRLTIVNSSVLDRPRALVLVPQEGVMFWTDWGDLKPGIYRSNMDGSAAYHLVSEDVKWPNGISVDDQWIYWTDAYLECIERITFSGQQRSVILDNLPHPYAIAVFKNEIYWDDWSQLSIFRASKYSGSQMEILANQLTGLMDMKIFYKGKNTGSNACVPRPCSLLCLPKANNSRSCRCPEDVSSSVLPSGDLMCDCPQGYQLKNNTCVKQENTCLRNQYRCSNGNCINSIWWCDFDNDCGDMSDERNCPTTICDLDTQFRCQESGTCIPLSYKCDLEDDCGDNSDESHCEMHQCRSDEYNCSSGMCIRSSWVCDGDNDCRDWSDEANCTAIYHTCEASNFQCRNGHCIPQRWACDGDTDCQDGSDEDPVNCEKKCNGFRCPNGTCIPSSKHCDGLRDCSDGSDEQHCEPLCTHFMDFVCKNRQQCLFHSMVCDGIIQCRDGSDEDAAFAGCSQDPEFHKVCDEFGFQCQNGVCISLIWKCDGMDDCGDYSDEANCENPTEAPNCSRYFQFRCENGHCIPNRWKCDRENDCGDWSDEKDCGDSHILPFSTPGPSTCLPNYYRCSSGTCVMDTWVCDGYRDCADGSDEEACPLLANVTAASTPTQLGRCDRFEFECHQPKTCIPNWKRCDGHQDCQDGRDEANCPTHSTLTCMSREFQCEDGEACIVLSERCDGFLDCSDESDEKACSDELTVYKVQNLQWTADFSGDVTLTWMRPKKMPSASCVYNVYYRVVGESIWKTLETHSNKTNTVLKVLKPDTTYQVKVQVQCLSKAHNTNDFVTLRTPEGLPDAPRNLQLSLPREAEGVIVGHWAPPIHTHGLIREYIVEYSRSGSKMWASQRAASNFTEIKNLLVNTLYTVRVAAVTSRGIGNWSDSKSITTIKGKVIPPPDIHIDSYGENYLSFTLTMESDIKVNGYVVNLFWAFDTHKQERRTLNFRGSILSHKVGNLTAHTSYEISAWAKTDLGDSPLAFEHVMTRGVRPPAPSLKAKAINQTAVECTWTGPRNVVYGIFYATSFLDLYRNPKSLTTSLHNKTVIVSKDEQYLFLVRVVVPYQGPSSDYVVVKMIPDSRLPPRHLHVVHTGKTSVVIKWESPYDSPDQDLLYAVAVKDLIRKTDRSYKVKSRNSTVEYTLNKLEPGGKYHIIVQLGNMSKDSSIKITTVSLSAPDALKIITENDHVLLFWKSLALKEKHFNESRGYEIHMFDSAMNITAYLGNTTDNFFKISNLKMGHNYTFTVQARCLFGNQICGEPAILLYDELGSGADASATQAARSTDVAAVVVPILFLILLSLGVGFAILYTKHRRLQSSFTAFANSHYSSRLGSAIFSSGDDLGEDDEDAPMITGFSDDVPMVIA

Assays:
[1] = target: full-length SORLA-GFP (UniProt Q92673); experiment: co-IP
[2] = target: Human epidermal growth factor receptor 2 (HER2), endogenous (human (endogenous in MDA-MB-361 and BT474)) (UniProt P04626); experiment: co-IP

Substance	binding [1]	binding [2]
Human epidermal growth factor receptor 2 (HER2), endogenous (from UniProt P04626 23-1255)	binds	–
Sortilin related receptor 1 (SORLA), endogenous (from UniProt Q92673 82-2214)	–	binds
